Measurements taken from PMC11750108, “FlbB forms a distinctive ring essential for periplasmic flagellar assembly and motility in Borrelia burgdorferi” (PLOS Pathogens, 2025).
These are yes or no findings as the source states them, for the method shown. Binding seen in cells or lysates may run through a third protein. Binding calls can cover weak binding; strength is not graded here. Tags and fused reporters may be left off the sequences shown.

Target: MBP-FlcB (B. burgdorferi) (UniProt O51085)
Test: pull-down; E. coli cells expressing FLAG-FlbB-His6 and MBP-FlcB mixed ~1:1, French pressed, purified on amylose resin; blot probed with anti-FLAG antibody

B1: FLAG-FlbB-His6 (deleted the first 42 aa from the FlbB) (domain or fragment)
chain: FPEFVRTKLLGETSLVFDHNSNIILDEARLVKEREAIDIKNQQIEKLKEDLKLKEDSLNKLEFELKQKQKDLDLKQKVIDDIINKYNDEEANILQTAVYLMNMPPEDAVKRLEDLNPELAISYMRKIEELSKKEGRLSIVPYWLSLMDSKKAAILIRKMSVSSLE
notes: FlbB, periplasmic flagellar collar protein of Borrelia burgdorferi (205 amino acids); the first 42 aa (with the N-terminal transmembrane helix) deleted; The deletion of the first 42 aa is stated only for the SEC-SAXS sample; Monomer estimated at 20.85 kDa; also called FlbB-6His; source: E. coli codon plus cells; in lysate of mixed cells (pull-downs); purified recombinant (SEC-SAXS, far-western); …
  binding: binds
